Consider two molecules from PMC4365484.

By UniProt entry, the sequences of proteins in these tests, tags left out.
UniProt Q15691: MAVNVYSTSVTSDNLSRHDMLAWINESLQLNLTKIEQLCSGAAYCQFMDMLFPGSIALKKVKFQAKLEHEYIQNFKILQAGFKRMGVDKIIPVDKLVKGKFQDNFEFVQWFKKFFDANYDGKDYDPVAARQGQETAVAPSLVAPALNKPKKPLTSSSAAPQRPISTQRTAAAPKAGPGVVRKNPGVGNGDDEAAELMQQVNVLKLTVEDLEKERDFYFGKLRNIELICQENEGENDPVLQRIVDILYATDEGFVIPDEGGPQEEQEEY

Experiment [1] addresses Flag-tagged EB1 (human) (UniProt Q15691). As to the kind of experiment: affinity purification with mass spectrometry; large-scale anti-Flag immunoprecipitation of Flag-EB1 from UTA6 mitotic cell lysates (DMA-arrested prometaphase cells; DMA-released anaphase cells), 3xFlag peptide elution, LC-MS-MS/MS; hits found at least twice with at least two peptides and not in Flag-Nuf2 immunoprecipitates.

Experiment [2] shares this target. The experiment in a line: condition: only anaphase cells (released from DMA for 45 min); affinity purification with mass spectrometry; as the large-scale anti-Flag immunoprecipitation of Flag-EB1, from anaphase cells only (released from DMA for 45 min).

Results are given in words; binding and its absence hold for the method and conditions named. In cells and extracts the contact can be indirect. Here binding means that the protein was enriched with, or labelled near, the bait; the list need not be complete. For part of these data: No binding means not detected with the bait.

B1: CLASP2 (protein, UniProt O75122 1-1294)
chain: MAMGDDKSFDDEESVDGNRPSSAASAFKVPAPKTSGNPANSARKPGSAGGPKVGGASKEGGAGAVDEDDFIKAFTDVPSIQIYSSRELEETLNKIREILSDDKHDWDQRANALKKIRSLLVAGAAQYDCFFQHLRLLDGALKLSAKDLRSQVVREACITVAHLSTVLGNKFDHGAEAIVPTLFNLVPNSAKVMATSGCAAIRFIIRHTHVPRLIPLITSNCTSKSVPVRRRSFEFLDLLLQEWQTHSLERHAAVLVETIKKGIHDADAEARVEARKTYMGLRNHFPGEAETLYNSLEPSYQKSLQTYLKSSGSVASLPQSDRSSSSSQESLNRPFSSKWSTANPSTVAGRVSAGSSKASSLPGSLQRSRSDIDVNAAAGAKAHHAAGQSVRSGRLGAGALNAGSYASLEDTSDKLDGTASEDGRVRAKLSAPLAGMGNAKADSRGRSRTKMVSQSQPGSRSGSPGRVLTTTALSTVSSGVQRVLVNSASAQKRSKIPRSQGCSREASPSRLSVARSSRIPRPSVSQGCSREASRESSRDTSPVRSFQPLASRHHSRSTGALYAPEVYGASGPGYGISQSSRLSSSVSAMRVLNTGSDVEEAVADALKKPARRRYESYGMHSDDDANSDASSACSERSYSSRNGSIPTYMRQTEDVAEVLNRCASSNWSERKEGLLGLQNLLKNQRTLSRVELKRLCEIFTRMFADPHGKRVFSMFLETLVDFIQVHKDDLQDWLFVLLTQLLKKMGADLLGSVQAKVQKALDVTRESFPNDLQFNILMRFTVDQTQTPSLKVKVAILKYIETLAKQMDPGDFINSSETRLAVSRVITWTTEPKSSDVRKAAQSVLISLFELNTPEFTMLLGALPKTFQDGATKLLHNHLRNTGNGTQSSMGSPLTRPTPRSPANWSSPLTSPTNTSQNTLSPSAFDYDTENMNSEDIYSSLRGVTEAIQNFSFRSQEDMNEPLKRDSKKDDGDSMCGGPGMSDPRAGGDATDSSQTALDNKASLLHSMPTHSSPRSRDYNPYNYSDSISPFNKSALKEAMFDDDADQFPDDLSLDHSDLVAELLKELSNHNERVEERKIALYELMKLTQEESFSVWDEHFKTILLLLLETLGDKEPTIRALALKVLREILRHQPARFKNYAELTVMKTLEAHKDPHKEVVRSAEEAASVLATSISPEQCIKVLCPIIQTADYPINLAAIKMQTKVIERVSKETLNLLLPEIMPGLIQGYDNSESSVRKACVFCLVAVHAVIGDELKPHLSQLTGSKMKLLNLYIKRAQTGSGGADPTTDVSGQS
In the case of B1, in the experiment with Flag-tagged EB1 (human) [1], the binding result is reported as “binds”.

B2: Kif18b (KIF18B), plus-end tracking kinesin (protein, UniProt Q86Y91 1-852)
chain: MAVEDSTLQVVVRVRPPTPRELDSQRRPVVQVVDERVLVFNPEEPDGGFPGLKWGGTHDGPKKKGKDLTFVFDRVFGEAATQQDVFQHTTHSVLDSFLQGYNCSVFAYGATGAGKTHTMLGREGDPGIMYLTTVELYRRLEARQQEKHFEVLISYQEVYNEQIHDLLEPKGPLAIREDPDKGVVVQGLSFHQPASAEQLLEILTRGNRNRTQHPTDANATSSRSHAIFQIFVKQQDRVPGLTQAVQVAKMSLIDLAGSERASSTHAKGERLREGANINRSLLALINVLNALADAKGRKTHVPYRDSKLTRLLKDSLGGNCRTVMIAAISPSSLTYEDTYNTLKYADRAKEIRLSLKSNVTSLDCHISQYATICQQLQAEVAALRKKLQVYEGGGQPPPQDLPGSPKSGPPPEHQPCTPELPAGPRALQEESLGMEAQVERAMEGNSSDQEQSPEDEDEGPAEEVPTQMPEQNPTHALPESPRLTLQPKPVVGHFSARELDGDRSKQLALKVLCVAQRQYSLLQAANLLTPDMITEFETLQQLVQEEKIEPGAEALRTSGLARGAPLAQELCSESIPVPSPLCPEPPGYTGPVTRTMARRLSGPLHTLGIPPGPNCTPAQGSRWPMEKKRRRPSALEADSPMAPKRGTKRQRQSFLPCLRRGSLPDTQPSQGPSTPKGERASSPCHSPRVCPATVIKSRVPLGPSAMQNCSTPLALPTRDLNATFDLSEEPPSKPSFHECIGWDKIPQELSRLDQPFIPRAPVPLFTMKGPKPTSSLPGTSACKKKRVASSSVSHGRSRIARLPSSTLKRPAGPLVLPELPLSPLCPSNRRNGKDLIRVGRALSAGNGVTKVS
As to B2, the binding result with Flag-tagged EB1 (human) [2] is “no binding”; with Flag-tagged EB1 (human) [1], “binds”.
